These are yes or no findings as the source states them, for the method shown. In cells and extracts the contact can be indirect. These calls come from enrichment with a bait or labelling near it, and not all partners need be listed. Where a sequence is shown, tags or fusion partners need not be part of it.

Amino acid sequences for entries named in this document (tags omitted).
UniProt P62141: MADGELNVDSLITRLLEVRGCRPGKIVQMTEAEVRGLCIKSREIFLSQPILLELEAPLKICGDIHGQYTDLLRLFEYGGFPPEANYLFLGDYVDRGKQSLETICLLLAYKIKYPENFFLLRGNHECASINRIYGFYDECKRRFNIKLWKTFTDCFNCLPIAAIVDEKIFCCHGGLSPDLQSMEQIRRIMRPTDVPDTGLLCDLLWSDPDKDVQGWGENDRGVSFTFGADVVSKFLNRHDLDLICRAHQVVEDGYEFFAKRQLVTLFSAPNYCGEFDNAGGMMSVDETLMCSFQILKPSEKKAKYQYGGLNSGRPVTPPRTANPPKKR

In the assay the target is T1, FLAG-tagged human JMJD1A (human) (UniProt Q9Y4C1).
T1 sequence: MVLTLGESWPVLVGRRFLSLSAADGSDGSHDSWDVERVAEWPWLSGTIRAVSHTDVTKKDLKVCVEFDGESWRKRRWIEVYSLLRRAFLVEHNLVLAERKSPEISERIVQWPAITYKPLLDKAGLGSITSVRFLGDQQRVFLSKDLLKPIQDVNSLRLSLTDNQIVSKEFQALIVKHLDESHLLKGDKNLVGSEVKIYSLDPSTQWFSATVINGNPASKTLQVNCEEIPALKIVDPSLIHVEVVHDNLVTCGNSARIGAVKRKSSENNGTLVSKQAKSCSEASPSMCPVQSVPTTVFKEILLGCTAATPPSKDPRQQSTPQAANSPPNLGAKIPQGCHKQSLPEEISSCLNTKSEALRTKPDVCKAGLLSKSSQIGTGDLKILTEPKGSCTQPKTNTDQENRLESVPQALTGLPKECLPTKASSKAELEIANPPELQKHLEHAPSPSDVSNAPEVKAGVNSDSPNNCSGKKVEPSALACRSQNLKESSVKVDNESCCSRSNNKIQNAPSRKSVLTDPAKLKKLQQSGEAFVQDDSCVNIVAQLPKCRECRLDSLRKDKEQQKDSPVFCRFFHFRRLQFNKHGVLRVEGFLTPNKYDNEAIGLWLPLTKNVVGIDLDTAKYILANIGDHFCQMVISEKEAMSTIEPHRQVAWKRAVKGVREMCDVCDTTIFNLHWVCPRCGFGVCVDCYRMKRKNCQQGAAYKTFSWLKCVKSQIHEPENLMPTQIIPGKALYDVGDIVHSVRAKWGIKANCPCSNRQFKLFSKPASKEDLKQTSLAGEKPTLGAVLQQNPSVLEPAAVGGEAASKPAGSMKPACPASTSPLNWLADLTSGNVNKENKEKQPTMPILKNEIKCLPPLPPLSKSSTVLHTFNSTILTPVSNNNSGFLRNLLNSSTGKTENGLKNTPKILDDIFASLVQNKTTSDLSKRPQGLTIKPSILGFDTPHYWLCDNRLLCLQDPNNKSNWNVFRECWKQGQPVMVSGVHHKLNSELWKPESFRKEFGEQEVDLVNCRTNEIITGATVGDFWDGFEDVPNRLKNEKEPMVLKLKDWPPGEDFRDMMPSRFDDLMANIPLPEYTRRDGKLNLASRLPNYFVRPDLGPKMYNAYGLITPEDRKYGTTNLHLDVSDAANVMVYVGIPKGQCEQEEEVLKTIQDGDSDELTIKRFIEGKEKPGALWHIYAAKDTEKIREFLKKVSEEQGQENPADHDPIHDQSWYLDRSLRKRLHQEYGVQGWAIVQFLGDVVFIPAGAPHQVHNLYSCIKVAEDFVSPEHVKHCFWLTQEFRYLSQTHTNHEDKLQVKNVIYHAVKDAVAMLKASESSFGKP
Nature of the assay: affinity purification with mass spectrometry; tandem affinity purification from 3T3-L1 pre-adipocytes expressing FLAG-tagged human JMJD1A: ANTI-FLAG M2 affinity gel (2 h, 4 °C), elution with 3X FLAG peptide, then anti-human JMJD1A (F3640) cross-linked to Dynabeads-Protein G (2 h, 4 °C); LC-MS/MS; two independent experiments; empty vector as control.

With “protein phosphatase 1 catalytic subunit beta (PP1β) (from UniProt P62141 1-327) (enzyme)”, the binding result is reported as “binds”.

B1: myosin phosphatase target subunit 1 (MYPT1) (protein, UniProt Q9DBR7 1-1029)
chain: MKMADAKQKRNEQLKRWIGSETDLEPPVVKRQKTKVKFDDGAVFLAACSSGDTDEVLKLLHRGADINYANVDGLTALHQACIDDNVDMVKFLVENGANINQPDNEGWIPLHAAASCGYLDIAEFLIGQGAHVGAVNSEGDTPLDIAEEEAMEELLQNEVNRQGVDIEAARKEEERVMLRDARQWLNSGHISDVRHAKSGGTALHVAAAKGYTEVLKLLIQAGYDVNIKDYDGWTPLHAAAHWGKEEACRILVDNLCDMETVNKVGQTAFDVADEDILGYLEELQKKQTLLHSEKRDKKSPLIESTANMENNQPQKAFKNKETLIIEPEKNASRIESLEHEKADEEEEGKKDESSCSSEEDEEDDSESEAETDKTKPMASVSNAHTSSTQAAPAAVTAPTLSSNQGTPTSPVKKFPISTTKISPKEEERKDESPASWRLGLRKTGSYGALAEISASKEAQKEKDTAGVMRSASSPRLSSSLDNKEKEKDNKGTRLAYVTPTIPRRLASTSDIEEKENRESSSLRTSSSYTRRKWEDDLKKNSSINEGSTYHRSCSFGRRQDDLISCSVPSTTSTPTVTSAAGLQRSLPSSTSTAAKTPPGSSSAGTQSSTSNRLWAEDSTEKEKDSAPTAVTIPVAPTVVNAAAPSTTTLTTTTAGTVSEVRERRRSYLTPVRDEESESQRKARSRQARQSRRSTQGVTLTDLQEAEKTIGRSRSTRTREQENEEKEKEEKEKQDKEKQEEKKESEASREDEYKQKYSRTYDETYTRYRPVSTSSSSAPSSSSLSTLGSTLYASSQLNRPNSLVGITSAYSRGLAKENEREGEKKEEEKEGEDKSQPKSIRERRRPREKRRSTGVSFWTQDSDENEQERQSDTEDGSSKRETQTDSVSRYDSSSTSSSDRYDSLLGRSASYSYLEDRKPYSSRLEKDDSTDFKKLYEQILAENEKLKAQLHDTNMELTDLKLQLEKATQRQERFADRSQLEMEKRERRALERRISEMEEELKMLPDLKADNQRLKDENGALIRVISKLSK
For the molecule B1, the binding entry is “binds”.

The record behind these values is publication PMC9523048.
